Measured values as given in PubChem BioAssay AID493014 (National Center for Advancing Translational Sciences (NCATS), 2011).
This is one part of the list. The main result of the screen is listed elsewhere. These columns were measured beside it and carry no call. Most of these compounds were active or inconclusive in the main read-out, so they are no random draw. The note in brackets gives the kind of curve behind each potency; many fits are weak.

Test: qHTS Assay to Find Inhibitors of Chronic Active B-Cell Receptor Signaling
Details: ABC-DLBCL IkBa-CBG/CBR reporter, luminescence ratio (green luciferase fused to IkBa over red control in TMD8 lymphoma cells), 4 h
In short: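 TMD8 human ABC-DLBCL cells with doxycycline-inducible IκBα–green luciferase fusion and unfused red luciferase, in 0.5% FBS medium; compounds up to 46 uM, 4 h at 37C. Green/red luminescence ratio, filter-overlap corrected, fitted to concentration-response curves.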

[1] = measured here: CBR red luminescence, cell number
[2] = measured here: IkBa-CBG green luminescence

SMILES | AC50 [1] | AC50 [2]
CC(=O)C(Sc1nn(C)c(=S)s1)C(=O)Nc1ccccc1 (stereo unspecified) | 35.5 µM [falling, single point] | –
O=c1oc(CCO)cc2ccc(C#Cc3ccsc3)cc12 | 2.59 µM [rising, full curve] | –
COc1cc(SC)ccc1C(=O)Nc1ccccc1C#N | 14.6 µM [rising, partial curve, poor fit] | –
CC1CCCN(C(=O)C2CCN(c3ncnc4c3nc3n4CCCCC3)CC2)C1 (stereo unspecified) | 17.8 µM [rising, partial curve, poor fit] | –
CCNC(=O)CCn1nc(-c2ccc(C)cc2)c2ccccc2c1=O | 2.82 µM [falling, full curve, poor fit] | –
C1CCN(CCCNC2C3CC4CC(C3)CC2C4)C1 (stereo unspecified) | 29.1 µM [falling, single point] | –
COc1ccc(-c2nn(C)c(=O)c3ccccc23)cc1NS(C)(=O)=O | 10 µM [rising, partial curve, poor fit] | 12.6 µM [falling, single point]
CSc1nc2nc3c(cc2c(=O)n1-c1cccc(C)c1)COC(C)(C)C3 | 5.62 µM [falling, single point] | –
Cc1ccc(S(=O)(=O)N2CCC(C(=O)N3CCC[C@H]3C(=O)NC3CCS(=O)(=O)C3)CC2)cc1 (stereo partly specified) | 29.1 µM [rising, single point] | –
O=C(Cn1ncc2c3ccccc3n(Cc3ccccc3)c2c1=O)N1CCN(c2ncccn2)CC1 | 3.26 µM [falling, single point] | –
Cc1ccc(S(=O)(=O)CCC(=O)OCc2ccccc2)cc1 | 0.631 µM [rising, partial curve, poor fit] | –
O=C(Cc1ccc(N2CCNC2=O)cc1)N1CCCC(Nc2cccc(F)c2)C1 (stereo unspecified) | 31.6 µM [rising, single point] | 15.8 µM [falling, single point]
Cc1ccc(C)c(C(=O)Nc2c(C(N)=O)oc3ccccc23)c1 | – | 0.651 µM [rising, full curve, poor fit]
CCOc1ccc(C(=O)Nc2cccc(C)n2)cc1 | 10 µM [falling, partial curve] | –
O=C(O)c1c(CNCc2cccc(F)c2)c2ccccc2n1Cc1ccccc1 | 22.4 µM [falling, partial curve] | –
CC1(C)Cc2c(sc(NC(=O)c3ccccc3)c2C(=O)O)CO1 | 0.224 µM [falling, full curve, poor fit] | –
CC(=O)NC(=O)c1ccc(-c2ccc(Cl)cc2)o1 | 29.1 µM [rising, single point] | –
Cc1cccc(-n2ncc3c(N4CCC(C)CC4)ncnc32)c1 | 0.411 µM [rising, partial curve, poor fit] | –
COc1cccc(C(=O)OCC(=O)c2ccc(Br)s2)c1OC | 6.51 µM [rising, partial curve, poor fit] | –
Cc1cc(NC(=O)CSc2nc(=O)cc(N)n2-c2ccc(Cl)cc2)no1 | 0.562 µM [rising, full curve] | –
CCN(CC)CCCNC(=O)c1cc2c(=O)[nH]c3ccc(C)cc3c2s1 | 20 µM [falling, single point] | –

SMILES | AC50 [1] | AC50 [2]
N#C/C(=C/c1cccc(C(F)(F)F)c1)c1nc(CCN2C(=O)c3ccccc3C2=O)cs1 | 3.16 µM [falling, partial curve, poor fit] | –
CCn1cc(C(=O)N[C@@H](C)C(=O)NCCCO)c(=O)c2cc3c(cc21)OCO3 | 12.6 µM [falling, partial curve, poor fit] | –
CN(Cc1ccccc1)CC(O)COc1ccc(CNCc2ccc(Cl)s2)cc1 (stereo unspecified) | 2.51 µM [falling, partial curve, poor fit] | –
c1nnnn1C12CC3CC(CC(C3)C1)C2 | 25.9 µM [rising, single point] | –
CN(CCOc1ccccc1)CC(=O)Nc1ccc(S(=O)(=O)N2CCCC2)cc1 | 0.1 µM [rising, full curve, poor fit] | –
Cc1cc(C)n2nc(C(=O)OCC(=O)c3cc(C)n(CC4CCCO4)c3C)nc2n1 (stereo unspecified) | 6.31 µM [rising, single point] | –
Cc1ccccc1C(=O)N1CCC(C(=O)Nc2ccc(S(=O)(=O)N3CCCC3)cc2)CC1 | 0.00461 µM [falling, full curve, poor fit] | –
COc1cc(OC)cc(C(=O)N[C@H](C(=O)OCC(=O)Nc2ccc(F)c(F)c2F)C(C)C)c1 | 35.5 µM [falling, single point] | –
CC(O)Cn1cnc2c1c(=O)n(C)c(=O)n2C (stereo unspecified) | 0.92 µM [falling, partial curve, poor fit] | –
C/C(=N/NC(=O)c1sc(NS(=O)(=O)c2ccccc2)nc1C)c1sc(N)nc1C | 14.1 µM [falling, single point] | –
COc1ccc(Cn2c(CCC(=O)Nc3ccc(CC#N)cc3)nc3cccnc32)cc1 | 10 µM [rising, partial curve, poor fit] | –
O=C(c1cccnc1)N1CCN(Cc2cccc(F)c2)CC1 | 2.91 µM [falling, single point] | –
CCSc1nc2c(c(-c3ccc(C)o3)c1C#N)CCCC2 | – | 16.4 µM [rising, partial curve, poor fit]
Cc1cc(-c2nc(C)c(C(=O)NNS(=O)(=O)c3ccc(Cl)cc3Cl)s2)no1 | 7.94 µM [falling, partial curve] | –
COc1ccc(-c2cc(C(=O)N3CCN(Cc4ccccc4)CC3)no2)cc1OC | 1.84 µM [falling, partial curve, poor fit] | –
COc1ccccc1OCC(=O)NCCC1=CCCCC1 | 2.91 µM [rising, full curve] | –
C/C(=C\C(=O)c1ccccc1)Nc1ccc(Br)c(Cl)c1 | 6.31 µM [rising, partial curve] | –
O=C(N/N=C/c1cccnc1)c1ccc2ccccc2c1O | 10 µM [falling, partial curve, poor fit] | –
Cc1ccc(C(=O)N/N=C\c2ccccc2[N+](=O)[O-])cn1 | 11.2 µM [falling, partial curve] | –
O=C(Nc1ccc2c(c1)C(=O)NC2=O)c1ccccc1 | 14.1 µM [falling, partial curve] | –
N#Cc1cc2c(nc1SCc1ccc(Cl)nc1)CCCCC2 | 2.82 µM [rising, partial curve, poor fit] | –

SMILES | AC50 [1] | AC50 [2]
Cc1ccc(S(=O)(=O)n2ccc(OC(=O)c3cccs3)n2)cc1 | 14.1 µM [rising, single point] | 35.5 µM [falling, partial curve, poor fit]
COc1ccc(C(=O)OCC(=O)c2ccc(F)cc2)cc1OC | 20.6 µM [falling, single point] | –
CCOc1ccccc1NC(=O)CCc1ccc(C)o1 | 6.51 µM [falling, partial curve, poor fit] | –
Oc1ccc(Br)cc1/C=N/N1CCCCC1 | 4.11 µM [rising, full curve] | –
CC[C@]12c3[nH]c4cc(CCC(=O)N(C)C)ccc4c3CCN1C(=O)[C@@H](CC(=O)NCc1ccc(OC)c(OC)c1)C[C@@H]2C(=O)N1CCN(C(=O)c2ccco2)CC1 | 16.4 µM [rising, partial curve, poor fit] | 13 µM [falling, partial curve, poor fit]
CS(=O)(=O)Nc1cccc(C2=NN(S(=O)(=O)c3ccc(F)cc3)C(c3cccs3)C2)c1 (stereo unspecified) | 29.1 µM [falling, single point] | –
CCCC(=O)Nc1nc(C)c(-c2csc(Nc3ccc(Cl)cc3)n2)s1 | 0.501 µM [rising, full curve, poor fit] | –
CCN(CC(=O)Nc1sc2c(c1C#N)CCC(C)C2)CC(=O)NC1CCS(=O)(=O)C1 (stereo unspecified) | 1.12 µM [rising, partial curve] | –
Cc1sc2nc3c(C(=O)N4CCCC4)cc(C(=O)c4ccccc4O)cn3c(=O)c2c1C | 8.91 µM [falling, partial curve, poor fit] | 14.1 µM [rising, partial curve, poor fit]
COc1ccccc1NC(=O)Nc1ccc(C)cn1 | 11.2 µM [falling, single point] | –
Cc1cc(C)c(C(=O)OCc2csc(CC(=O)Nc3ccccc3C)n2)c(C)c1 | 1 µM [rising, full curve, poor fit] | –
CCCCNC(=O)N(O)C1N(/N=C/c2ccccc2F)C(=S)SC1(C)C (stereo unspecified) | 35.5 µM [falling, single point] | –
O=C(NCCCn1ccnc1)Nc1ccc(Cl)c(Cl)c1 | 3.16 µM [rising, partial curve, poor fit] | –
CCN(c1ccccc1)S(=O)(=O)c1ccc(C(=O)Nc2ncccc2C)cc1 | 25.9 µM [falling, partial curve, poor fit] | –
COc1cc(OC)cc(C(=O)/C=C2\Sc3ccccc3N2C)c1 | 0.355 µM [falling, full curve, poor fit] | –
O=C(Nc1c(Cl)ccc2nsnc12)c1ccc([N+](=O)[O-])o1 | 3.98 µM [falling, partial curve, poor fit] | –
CC(=O)c1ccc(S(=O)(=O)N(C)CCCC(=O)N(C)Cc2ccccc2F)cc1 | 6.31 µM [rising, single point] | –
Cc1cccc(-c2noc(CCCC(=O)Nc3cccnc3)n2)c1 | 3.16 µM [rising, full curve, poor fit] | –
COC(=O)c1ccc(Oc2c(Cl)cccc2[N+](=O)[O-])cc1 | 5.8 µM [rising, full curve, poor fit] | –

Individual results from the entries so far:
COc1cc(OC)cc(C(=O)/C=C2\Sc3ccccc3N2C)c1 | AC50 [1]: 0.355 µM [falling, full curve, poor fit]
CCCCNC(=O)N(O)C1N(/N=C/c2ccccc2F)C(=S)SC1(C)C (stereo unspecified) | AC50 [1]: 35.5 µM [falling, single point]
Cc1ccc(S(=O)(=O)n2ccc(OC(=O)c3cccs3)n2)cc1 | AC50 [1]: 14.1 µM [rising, single point]
CCN(CC(=O)Nc1sc2c(c1C#N)CCC(C)C2)CC(=O)NC1CCS(=O)(=O)C1 (stereo unspecified) | AC50 [1]: 1.12 µM [rising, partial curve]
